The other results are listed elsewhere or left out. Single values are uncertain, as repeats are few or missing.

This is an account of results in the supplement of paper PMC8047044.

This assay has as its system Neuro-2a. Briefly: neurite formation score, plate-normalized to DMSO control mean 5.04 (score (0-8 scale)); higher = more or longer neurites. Conditions: 10 µM.
Consider `COc1ccc2c(c[n+](C)c3c4cc5c(cc4ccc23)OCO5)c1OC` [Chelerythrine Chloride], for which the neurite formation score is -0.124.
The molecule `CC(C)(C)c1cc(C=C(C#N)C#N)cc(Br)c1O` had a neurite formation score of 2.54.
As to `CCN1CCN(C(=O)Cc2ccc(Nc3ncc(F)c(Nc4ccc(C(=O)Nc5ccccc5Cl)cc4)n3)cc2)CC1` [Aurora A Inhibitor I], the neurite formation score amounted to 4.08.
Then `COC[C@H]1OC(=O)c2coc3c2[C@@]1(C)C1=C(C3=O)[C@@H]2CCC(=O)[C@@]2(C)C[C@H]1OC(C)=O` [Wortmannin], with 5.43.
Then `Cc1ccccc1-n1c(Cn2cnc3c(N)ncnc32)nc2cccc(C)c2c1=O`, with 4.86; and `CC(C)(C)c1cc(C=C(C#N)C#N)cc(C(C)(C)C)c1O` [Tyrphostin 9], with 3.43; and `O=c1[nH]c2ccc(Cl)cc2c(N[C@@H]2CN3CCC2CC3)c1-c1nc2ccccc2[nH]1`, with 4.43.
`N#CC(C#N)=Cc1ccc(O)c(O)c1`: the neurite formation score is 4.54.
The figure for `Cn1cc(C2=C(c3cn(C4CCN(Cc5ccccn5)CC4)c4ccccc34)C(=O)NC2=O)c2ccccc21` is 0.209; for `COc1ccc(N(C(=O)Oc2c(C)cccc2C)c2ccnc(Nc3ccc(N4CCN(C)CC4)cc3)n2)c(OC)c1` it is 2.19; for `O=c1[nH]c2ccccc2n1C1CCN(Cc2ccc(-c3[nH]c4cc5ncnc5cc4nc3-c3ccccc3)cc2)CC1` [AKT inhibitor VIII] it is 4.21.
Then `COc1cc([C@@H]2c3cc4c(cc3[C@H](O)[C@H]3COC(=O)[C@@H]23)OCO4)cc(OC)c1OC`, with 1.21.
